64 molecules from PubChem BioAssay AID445 (National Center for Advancing Translational Sciences (NCATS), 2006) can be followed below.

Molecules are shown by their SMILES. The list shows a part of the results. Further columns of the screen follow, without active or inactive calls. The list favours compounds with an active or inconclusive main result. Words in brackets tell the shape of the fitted curve; partial curves, single points and poor fits give uncertain potencies.

The assay is described as follows: IkB Signaling. The settings on record: ABC-DLBCL IkBa-CBG/CBR dual luciferase ratio (green luciferase fused to IkBa over red control in OCI-Ly3 lymphoma cells), 4 h. The essentials:
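Curves were fitted separately to fusion (green), unfused (red) and ratio luminescence, then classed by r2, magnitude and activity. Cells: OCI-Ly3, 4 h compound plus doxycycline at 37C; 10 uM MG-132 defined full response.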

[1] abbreviates: measured here: control luc red channel unless noted.

With `Cc1cccc(Cn2c(N3CCCCC3C)nc3c2c(=O)[nH]c(=O)n3C)c1` (stereo not given), the AC50 under setting [1] was 20 µM [falling, single point].
For `CCn1c(C)c(C)c2cc(C(=O)N3CCN(c4ccccc4)CC3)ccc21`, under setting [1], the AC50 is 20 µM [falling, single point].
Still for that read-out and setting: to `CN(C)c1ncnc2ccc(-c3cccc(NS(C)(=O)=O)c3)cc12` belongs 3.16 µM [rising, partial curve]; to `Cc1n[nH]c(C)c1S(=O)(=O)N1CCCC(C(=O)N2CCN(c3ccc(Cl)cc3)CC2)C1` (stereo not given), 15.8 µM [falling, partial curve].
On the same count and under the same terms, the figure for `CCCCc1nn2c(=O)cc(COC(=O)c3ccc4c(c3)OCO4)nc2s1` is 0.794 µM [falling, full curve]; for `O=C(CCCn1c(=O)[nH]c2ccc(Br)cc2c1=O)N1CCN(c2cccc(Cl)c2)CC1` it is 20 µM [falling, partial curve]; for `COc1ccccc1C(=O)NCC(c1ccc(N(C)C)cc1)N1CCc2ccccc21` (stereo not given) it is 12.6 µM [falling, partial curve].
With `Cc1noc(C)c1C(=O)OCC(=O)c1cc(C)n(Cc2ccccc2Cl)c1C`, the AC50 under setting [1] is 15.8 µM [falling, partial curve].
`CCOc1ccc(-c2cn3c(n2)sc2cc(C(=O)NCCCN4CCCCC4)ccc23)cc1`: the AC50 under setting [1] was 25.1 µM [falling, single point].
`COc1cc(NC(=O)c2ccc(-c3nc(CSc4ccccc4)c(C)o3)cc2)cc(OC)c1`: under setting [1], the AC50 was 2.51 µM [falling, full curve].
Same read-out and setting: the figure for `CCSc1nnc(NC(=O)c2ccccc2)s1` is 2.51 µM [falling, full curve].
On to `COc1ccc2nc(N(Cc3cccnc3)C(C)=O)sc2c1`, for which, under setting [1], the AC50 is 15.8 µM [rising, partial curve].
On the same count and under the same terms, the figure for `O=C(Nc1sc2c(c1C(=O)O)CCC2)c1cccs1` is 3.98 µM [falling, partial curve]; for `COC(=O)c1cc2oc(C)cc2n1Cc1ccc(Br)cc1F` it is 15.8 µM [falling, partial curve].
As for `CCC(Oc1ccccc1-c1nnc(-c2ccccc2)o1)C(=O)Nc1ccc(C(C)=O)cc1` (stereo not given), the AC50 under setting [1] is 1 µM [rising, full curve].
Still for that read-out and setting: to `COc1ccc(/C=N\n2nnc3ccccc32)cc1` belongs 3.98 µM [falling, full curve, poor fit].
Consider `CCc1ccc(-n2c(=O)c3cccnc3n2CC(=O)NCc2ccccc2)cc1`, for which the AC50 runs as follows: (measured here: IkB-luc green channel) 5.01 µM [rising, single point]; (measured here: control luc red channel) 5.01 µM [rising, partial curve].
In the case of `Oc1c(C(c2ccccn2)N2CCOCC2)ccc2cccnc12` (stereo not given), the AC50 under setting [1] is 15.8 µM [falling, partial curve].
Still for that read-out and setting: the figure for `O=C(C1CCCN(S(=O)(=O)c2cccc3nonc23)C1)N1CCC(Cc2ccccc2)CC1` (stereo not given) is 15.8 µM [falling, partial curve].
In the case of `Cc1cc(NC(=O)c2cccc(S(=O)(=O)N3CC(c4ccccc4)CC3=O)c2)no1` (stereo not given), the AC50 under setting [1] is 15.8 µM [falling, partial curve].
The same measure, in the same setting: to `Cc1ccc(C)c(NC(=O)n2ncc3cc(Cl)ccc32)c1` belongs 25.1 µM [falling, partial curve].
The same measure, in the same setting: to `COCCCNC(=O)Cn1cnc2sc(C)c(S(=O)(=O)N3CCC(C)CC3)c2c1=O` belongs 0.01 µM [falling, full curve]; to `CCn1c(SCC(=O)O)nnc1-c1cc2c(C)nn(-c3ccccc3)c2s1`, 25.1 µM [falling, partial curve].
On the same count and under the same terms, to `Cc1ccc(CCNC(=O)c2ccc3nc(N4CCC(C)CC4)sc3c2)cc1` belongs 15.8 µM [falling, partial curve]; to `COc1ccc(-c2nc3sc(CCNC(=O)c4ccco4)c(C)n3n2)cc1`, 39.8 µM [falling, single point]; to `Cn1cc(CN(C(=O)Nc2ccccc2)C2CCCCC2)c2ccccc21`, 20 µM [falling, single point].
In the case of `Cn1c(Cn2cnc3ccccc32)nnc1SCC(=O)CC(=O)Nc1ccccc1`, the AC50 under setting [1] is 7.94 µM [falling, partial curve].
With `COc1cc2c(cc1OC)CN(C(=O)Nc1ccccc1)CC2`, under setting [1], the AC50 is 5.01 µM [falling, partial curve].
With `COc1ccccc1NC(=O)c1ccc(COc2ccc(C)c(C)c2)o1`, under setting [1], the AC50 was 31.6 µM [falling, single point].
Still for that read-out and setting: to `Cc1cccc(N2CCN(S(=O)(=O)c3c(C)nc4scc(C)n4c3=O)CC2)c1C` belongs 31.6 µM [falling, single point]; to `CCn1cc2nc(SCc3cc(C)ccc3C)n(CCc3ccccc3)c(=O)c2n1`, 39.8 µM [falling, single point].
With `CCCCn1c(=N)n(CCCOc2ccc(F)cc2)c2ccccc21`, under setting [1], the AC50 was 20 µM [falling, partial curve].
As to `COC(=O)c1c(C)oc2ccc(N(C(=O)c3ccncc3)S(=O)(=O)c3ccc(OC)cc3)cc12`, the AC50 under setting [1] was 7.94 µM [falling, full curve].
On the same count and under the same terms, to `CCc1ccc(-n2c(=O)c3c4c(sc3n(Cc3ccccc3C#N)c2=O)CCC4)cc1` belongs 7.94 µM [falling, full curve, poor fit].
Turning to `CCc1cc2ccc(C)cc2nc1SCC(=O)N1CCN(C(=O)c2ccco2)CC1`, the AC50 under setting [1] is 15.8 µM [falling, partial curve].
Consider `O=C(Nc1cccc(NC(=O)C2CC3CCCC(C2)C3=O)n1)C1CC2CCCC(C1)C2=O` (stereo not given), for which the AC50 under setting [1] is 12.6 µM [falling, partial curve].
Same read-out and setting: the figure for `Nc1nc2n(n1)C(c1cccc(Br)c1)CC(c1ccc(F)cc1)N2` (stereo not given) is 6.31 µM [rising, single point].
Consider `CCOC(=O)c1cc2oc(C)cc2n1CC(=O)OC1CCCCC1`, for which the concentration at half-maximal activity (AC50) under setting [1] is 15.8 µM [falling, partial curve].
Turning to `Cc1ccc(CCNC(=O)C2CCCN(c3nnc(C)c4c(C)n(-c5ccccc5)nc34)C2)cc1` (stereo not given), under setting [1], the AC50 is 25.1 µM [falling, partial curve].
The same measure, in the same setting: the figure for `Cc1ccc2c(c1)C1CN(C)CCC1N2C(=O)Nc1ccc(Cl)cc1` (stereo not given) is 31.6 µM [falling, single point]; for `CC1=C(c2ccc(F)cc2)S(=O)(=O)N=C1N1CCC(C(=O)NCCc2cccc(C)c2)CC1` it is 31.6 µM [falling, single point].
With `Cc1ccc(CSc2ncc(Cl)c(C(=O)Nc3nnc(C)s3)n2)cc1`, the AC50 under setting [1] is 15.8 µM [falling, partial curve].
As to `COc1cccc(-c2nc(CS(=O)(=O)CC(=O)NCc3cccc(Cl)c3)c(C)o2)c1`, under setting [1], the AC50 was 0.00631 µM [falling, full curve, poor fit].
For the molecule `COc1ccc(-c2cnnn2-c2ccc(NC(=O)c3ccccc3OC)cc2)cc1`, the concentration at half-maximal activity (AC50) under setting [1] is 3.16 µM [falling, partial curve].
Still for that read-out and setting: the figure for `COc1ccc(CCNC(=O)CN2C(=O)COc3ccc(S(=O)(=O)N4CCCC4)cc32)c(OC)c1` is 12.6 µM [falling, partial curve]; for `Cc1c(C(=O)NCc2cccc(Cl)c2)sc2nc3n(c(=O)c12)CCCC3` it is 12.6 µM [falling, partial curve]; for `Cc1c(C(=O)NCc2cccc(Br)c2)oc2ccc3c(c12)C(=O)CC(C)(C)O3` it is 1.58 µM [rising, partial curve, poor fit].
For `Cc1csc2nc(=O)c3ccccc3n12`, the half-maximal activity concentration (AC50) under setting [1] is 2 µM [falling, full curve, poor fit].
On the same count and under the same terms, the figure for `COc1ccc(-c2nc3sc(CCNC(=O)C(=O)Nc4cccc(NC(C)=O)c4)c(C)n3n2)cc1` is 3.98 µM [rising, single point]; for `CCNC(=O)C1CCN(S(=O)(=O)c2ccc3c(c2)CCCN3C(C)=O)CC1` it is 25.1 µM [rising, single point]; for `Cn1c(SCc2nnc(-c3ccccc3Br)o2)nc2sc3c(c2c1=O)CCC3` it is 20 µM [falling, partial curve].
On the same count and under the same terms, to `CCOc1cc(C(=O)Nc2ccc(-c3cn4cccnc4n3)cc2)cc(OCC)c1OCC` belongs 31.6 µM [falling, single point]; to `Cn1c(=O)oc2cc(S(=O)(=O)CCC(=O)N3CCN(c4cccc(Cl)c4)CC3)ccc21`, 31.6 µM [falling, single point].
On to `CC1CCc2c(sc(N)c2C(N)=O)C1` (stereo not given), for which, under setting [1], the AC50 was 15.8 µM [falling, partial curve].
The same measure, in the same setting: to `O=C(CCN1CCN(c2ccccc2F)CC1)c1ccc(Br)cc1` belongs 25.1 µM [falling, partial curve].
On the same count and under the same terms, the figure for `Cc1cccc(NC(=O)C2CCCN2S(=O)(=O)c2ccc3nc(-c4ccccc4)[nH]c3c2)c1` (stereo not given) is 7.94 µM [falling, partial curve]; for `Cc1ccc2c(c1)c1c(c(=O)n(-c3ccccc3)c(=O)n1CC(=O)NCC1CCCO1)n2C` (stereo not given) it is 5.01 µM [falling, partial curve, poor fit].
Still for that read-out and setting: the figure for `COc1cc2ncc3c(-c4ccc(C)cc4)nn(-c4ccc(F)cc4F)c3c2cc1OC` is 12.6 µM [falling, partial curve]; for `COc1ccc(Cn2ccnc2SCC(=O)Nc2nc3ccccc3s2)cc1` it is 12.6 µM [falling, partial curve].
In the case of `Nn1c(Nc2ccccc2)nc2sc3c(c2c1=O)CCC3`, the AC50 under setting [1] was 12.6 µM [falling, partial curve].
Consider `Cc1cc(Nc2ccccc2C)n2nc(Cc3ccc(Cl)cc3)nc2n1`, for which, under setting [1], the AC50 is 39.8 µM [falling, single point].
On the same count and under the same terms, the figure for `Cc1ccn2c(Nc3ccc4c(c3)OCCO4)c(-c3ccc(C)o3)nc2c1` is 20 µM [falling, partial curve].
Still for that read-out and setting: the figure for `O=C(Nc1ccc2nc(SCC(=O)N3CCc4ccccc43)sc2c1)c1ccccc1` is 2.51 µM [falling, partial curve]; for `CCCCNC(=O)CSc1nc2nc(C)c(Cc3c(F)cccc3Cl)c(C)n2n1` it is 39.8 µM [falling, single point].
